Data from article doi:10.1101/2022.06.06.494920.
Protein sequences can lack the tags named with them.

Target: T1, LexA (Nostoc sp. PCC 7120) (UniProt A0ACD7RYW4)
T1 sequence (looked up): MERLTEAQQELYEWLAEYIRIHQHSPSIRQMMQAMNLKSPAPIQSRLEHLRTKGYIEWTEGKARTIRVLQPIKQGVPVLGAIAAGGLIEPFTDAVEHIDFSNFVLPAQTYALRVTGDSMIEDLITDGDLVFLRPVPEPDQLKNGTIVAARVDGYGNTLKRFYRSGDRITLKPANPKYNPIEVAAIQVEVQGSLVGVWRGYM
Test: EMSA
Details: residues 1-201; probe letters rebuilt from the primers and the genome

Sequence: GACGGTACCAAAAAACAATAGGGATATCAGACAGAATTAAAAACGCAAAATTTAAAACTCAAAACGGGAGATTTTGAATTTTGAATTTTGAATTGCTAAACAGTCCTCTTACCCATAAAGCGGAAGAATAACTTCTCCATCTCCACCCAAACAAACATCAAGGCGCTGAAGCCGACGCAAATTGCTAACTCGTCAAGTGGTAGCCAGTGAGTGCCAAAGAAATCCCGCAGGGGTGGAACGTAGACCAGCATGAGTTGCAAAATTGTTGTGACAACAACTGCCCCTAATACATAAGGATTTGAGACAGGAGAGCTCGTC (double strand) [PrecF]
- half-maximal binding: 101 nM
